Record: PubChem BioAssay AID1159601 (NIAID, 2016)
Test: 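Knock-down of 126 canonical TLR pathway genes, testing the TNF response to a TLR2 ligand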 (primary screen). Cell system: human THP-1 reporter cells differentiated with PMA into macrophage-like cells. Reagents: single siRNA against human genes. Timing: ligand added 4 hours before read-out; cells assayed 48 to 72 hours after siRNA transfection. Conditions: Pam3CSK4 (TLR2 ligand) for 4 hours; dose not given. Measured: 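TNF promoter dual-luciferase ratio measured 4 h after Pam3CSK4, converted to robust z-scores against negative controls and averaged across replicates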. Direction: TNF reporter z-score: higher = stronger TNF promoter reporter activity. Call rule: 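Grade increases with absolute z-score, cut points 1, 1.5, 2 and 2.5, both signs; rows called active have z near or beyond ±1.5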. Meaning of the calls: active = clear change (up or down); inactive = little change.
This is an unselected part of 756 deposited reagents. Of all reagents, 143 (19%) were called active. 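Calls include both lowered and raised reporter signal; each row is a single siRNA, not a gene summary; Pam3CSK4 dose not stated.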 Reagents against one gene are numbered here. Not given: the amount of reagent.

{"gene knocked down": "MAPKAPK2 (MAPK activated protein kinase 2)", "reagent no.": 1, "TNF reporter z-score, replicate mean": -1.03, "activity call": "inactive"}
{"gene knocked down": "MAPKAPK2 (MAPK activated protein kinase 2)", "reagent no.": 2, "TNF reporter z-score, replicate mean": -0.506, "activity call": "inactive"}
{"gene knocked down": "MAPKAPK2 (MAPK activated protein kinase 2)", "reagent no.": 3, "TNF reporter z-score, replicate mean": -0.615, "activity call": "inactive"}
{"gene knocked down": "MAPKAPK2 (MAPK activated protein kinase 2)", "reagent no.": 4, "TNF reporter z-score, replicate mean": -0.473, "activity call": "inactive"}
{"gene knocked down": "MAPKAPK2 (MAPK activated protein kinase 2)", "reagent no.": 5, "TNF reporter z-score, replicate mean": 0.737, "activity call": "inactive"}
{"gene knocked down": "MAPKAPK2 (MAPK activated protein kinase 2)", "reagent no.": 6, "TNF reporter z-score, replicate mean": -0.957, "activity call": "inactive"}
{"gene knocked down": "MAPK13 (mitogen-activated protein kinase 13)", "reagent no.": 1, "TNF reporter z-score, replicate mean": -1.71, "activity call": "active"}
{"gene knocked down": "MAPK13 (mitogen-activated protein kinase 13)", "reagent no.": 2, "TNF reporter z-score, replicate mean": -0.634, "activity call": "inactive"}
{"gene knocked down": "MAPK13 (mitogen-activated protein kinase 13)", "reagent no.": 3, "TNF reporter z-score, replicate mean": -2.36, "activity call": "active"}
{"gene knocked down": "MAPK13 (mitogen-activated protein kinase 13)", "reagent no.": 4, "TNF reporter z-score, replicate mean": -0.201, "activity call": "inactive"}
{"gene knocked down": "MAPK13 (mitogen-activated protein kinase 13)", "reagent no.": 5, "TNF reporter z-score, replicate mean": -0.446, "activity call": "inactive"}
{"gene knocked down": "MAPK13 (mitogen-activated protein kinase 13)", "reagent no.": 6, "TNF reporter z-score, replicate mean": -0.475, "activity call": "inactive"}
{"gene knocked down": "CYLD (CYLD lysine 63 deubiquitinase)", "reagent no.": 1, "TNF reporter z-score, replicate mean": -0.176, "activity call": "inactive"}
{"gene knocked down": "CYLD (CYLD lysine 63 deubiquitinase)", "reagent no.": 2, "TNF reporter z-score, replicate mean": -0.758, "activity call": "inactive"}
{"gene knocked down": "CYLD (CYLD lysine 63 deubiquitinase)", "reagent no.": 3, "TNF reporter z-score, replicate mean": 0.274, "activity call": "inactive"}
{"gene knocked down": "CYLD (CYLD lysine 63 deubiquitinase)", "reagent no.": 4, "TNF reporter z-score, replicate mean": -0.106, "activity call": "inactive"}
{"gene knocked down": "CYLD (CYLD lysine 63 deubiquitinase)", "reagent no.": 5, "TNF reporter z-score, replicate mean": 0.254, "activity call": "inactive"}
{"gene knocked down": "CYLD (CYLD lysine 63 deubiquitinase)", "reagent no.": 6, "TNF reporter z-score, replicate mean": -0.587, "activity call": "inactive"}
{"gene knocked down": "MAPK1 (mitogen-activated protein kinase 1)", "reagent no.": 1, "TNF reporter z-score, replicate mean": -0.0723, "activity call": "inactive"}
{"gene knocked down": "MAPK1 (mitogen-activated protein kinase 1)", "reagent no.": 2, "TNF reporter z-score, replicate mean": -0.399, "activity call": "inactive"}
{"gene knocked down": "MAPK1 (mitogen-activated protein kinase 1)", "reagent no.": 3, "TNF reporter z-score, replicate mean": -0.944, "activity call": "inactive"}
{"gene knocked down": "MAPK1 (mitogen-activated protein kinase 1)", "reagent no.": 4, "TNF reporter z-score, replicate mean": 0.0907, "activity call": "inactive"}
{"gene knocked down": "MAPK1 (mitogen-activated protein kinase 1)", "reagent no.": 5, "TNF reporter z-score, replicate mean": -1.02, "activity call": "inactive"}
{"gene knocked down": "MAPK1 (mitogen-activated protein kinase 1)", "reagent no.": 6, "TNF reporter z-score, replicate mean": 0.0179, "activity call": "inactive"}
{"gene knocked down": "RAC1 (Rac family small GTPase 1)", "reagent no.": 1, "TNF reporter z-score, replicate mean": -0.334, "activity call": "inactive"}
{"gene knocked down": "RAC1 (Rac family small GTPase 1)", "reagent no.": 2, "TNF reporter z-score, replicate mean": 0.58, "activity call": "inactive"}
{"gene knocked down": "RAC1 (Rac family small GTPase 1)", "reagent no.": 3, "TNF reporter z-score, replicate mean": 0.0679, "activity call": "inactive"}
{"gene knocked down": "RAC1 (Rac family small GTPase 1)", "reagent no.": 4, "TNF reporter z-score, replicate mean": -1.11, "activity call": "inactive"}
{"gene knocked down": "RAC1 (Rac family small GTPase 1)", "reagent no.": 5, "TNF reporter z-score, replicate mean": 1.33, "activity call": "inactive"}
{"gene knocked down": "RAC1 (Rac family small GTPase 1)", "reagent no.": 6, "TNF reporter z-score, replicate mean": -0.925, "activity call": "inactive"}
{"gene knocked down": "ETS1 (ETS proto-oncogene 1, transcription factor)", "reagent no.": 1, "TNF reporter z-score, replicate mean": -0.00851, "activity call": "inactive"}
{"gene knocked down": "ETS1 (ETS proto-oncogene 1, transcription factor)", "reagent no.": 2, "TNF reporter z-score, replicate mean": -1.68, "activity call": "active"}
{"gene knocked down": "ETS1 (ETS proto-oncogene 1, transcription factor)", "reagent no.": 3, "TNF reporter z-score, replicate mean": -0.951, "activity call": "inactive"}
{"gene knocked down": "ETS1 (ETS proto-oncogene 1, transcription factor)", "reagent no.": 4, "TNF reporter z-score, replicate mean": -0.372, "activity call": "inactive"}
{"gene knocked down": "ETS1 (ETS proto-oncogene 1, transcription factor)", "reagent no.": 5, "TNF reporter z-score, replicate mean": 0.883, "activity call": "inactive"}
{"gene knocked down": "ETS1 (ETS proto-oncogene 1, transcription factor)", "reagent no.": 6, "TNF reporter z-score, replicate mean": -2.25, "activity call": "active"}
{"gene knocked down": "TLR5 (toll like receptor 5)", "reagent no.": 1, "TNF reporter z-score, replicate mean": 0.309, "activity call": "inactive"}
{"gene knocked down": "TLR5 (toll like receptor 5)", "reagent no.": 2, "TNF reporter z-score, replicate mean": 1.67, "activity call": "active"}
{"gene knocked down": "TLR5 (toll like receptor 5)", "reagent no.": 3, "TNF reporter z-score, replicate mean": -1.21, "activity call": "inactive"}
{"gene knocked down": "TLR5 (toll like receptor 5)", "reagent no.": 4, "TNF reporter z-score, replicate mean": -0.712, "activity call": "inactive"}
{"gene knocked down": "TLR5 (toll like receptor 5)", "reagent no.": 5, "TNF reporter z-score, replicate mean": 0.374, "activity call": "inactive"}
{"gene knocked down": "TLR5 (toll like receptor 5)", "reagent no.": 6, "TNF reporter z-score, replicate mean": -1.53, "activity call": "active"}
{"gene knocked down": "IRF7 (interferon regulatory factor 7)", "reagent no.": 1, "TNF reporter z-score, replicate mean": -0.854, "activity call": "inactive"}
{"gene knocked down": "IRF7 (interferon regulatory factor 7)", "reagent no.": 2, "TNF reporter z-score, replicate mean": -1.5, "activity call": "inactive"}
{"gene knocked down": "IRF7 (interferon regulatory factor 7)", "reagent no.": 3, "TNF reporter z-score, replicate mean": 1.94, "activity call": "active"}
{"gene knocked down": "IRF7 (interferon regulatory factor 7)", "reagent no.": 4, "TNF reporter z-score, replicate mean": -0.811, "activity call": "inactive"}
{"gene knocked down": "IRF7 (interferon regulatory factor 7)", "reagent no.": 5, "TNF reporter z-score, replicate mean": -1.53, "activity call": "active"}
{"gene knocked down": "IRF7 (interferon regulatory factor 7)", "reagent no.": 6, "TNF reporter z-score, replicate mean": 0.286, "activity call": "inactive"}

Called active, of those listed so far:
{"gene knocked down": "MAPK13 (mitogen-activated protein kinase 13)", "reagent no.": 1, "TNF reporter z-score, replicate mean": -1.71, "activity call": "active"}
{"gene knocked down": "MAPK13 (mitogen-activated protein kinase 13)", "reagent no.": 3, "TNF reporter z-score, replicate mean": -2.36, "activity call": "active"}
{"gene knocked down": "ETS1 (ETS proto-oncogene 1, transcription factor)", "reagent no.": 2, "TNF reporter z-score, replicate mean": -1.68, "activity call": "active"}
{"gene knocked down": "ETS1 (ETS proto-oncogene 1, transcription factor)", "reagent no.": 6, "TNF reporter z-score, replicate mean": -2.25, "activity call": "active"}
{"gene knocked down": "TLR5 (toll like receptor 5)", "reagent no.": 2, "TNF reporter z-score, replicate mean": 1.67, "activity call": "active"}
{"gene knocked down": "TLR5 (toll like receptor 5)", "reagent no.": 6, "TNF reporter z-score, replicate mean": -1.53, "activity call": "active"}
{"gene knocked down": "IRF7 (interferon regulatory factor 7)", "reagent no.": 3, "TNF reporter z-score, replicate mean": 1.94, "activity call": "active"}
{"gene knocked down": "IRF7 (interferon regulatory factor 7)", "reagent no.": 5, "TNF reporter z-score, replicate mean": -1.53, "activity call": "active"}
